# Results from the supplement of paper PMC3334620.
# Over roughly 33,000 sequences, “E-score (-0.5 to 0.5)” has its median near -0.0014; the highest 2% begin near 0.25. This is one part of the list.
# Molecular target: T1, Cad1 (UniProt P24813)
# T1 sequence: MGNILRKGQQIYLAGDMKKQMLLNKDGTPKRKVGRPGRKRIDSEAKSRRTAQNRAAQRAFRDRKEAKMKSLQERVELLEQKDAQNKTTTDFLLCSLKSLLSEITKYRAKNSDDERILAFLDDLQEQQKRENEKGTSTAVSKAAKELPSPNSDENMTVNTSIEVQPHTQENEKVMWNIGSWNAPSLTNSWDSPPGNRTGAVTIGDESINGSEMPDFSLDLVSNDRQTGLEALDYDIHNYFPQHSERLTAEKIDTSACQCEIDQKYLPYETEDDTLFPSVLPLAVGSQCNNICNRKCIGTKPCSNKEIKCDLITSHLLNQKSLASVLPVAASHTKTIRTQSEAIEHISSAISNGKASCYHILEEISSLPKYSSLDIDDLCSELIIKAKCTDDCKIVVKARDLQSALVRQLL
# Assay: PBM E-score (8-mer binding enrichment) (E-score (-0.5 to 0.5)); higher = stronger / more preferred TF binding
# Details: protein concentration: 100 nM; construct: GST-full length
# Method in brief: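 Bound GST-tagged yeast transcription factors, applied at about 100-200 nM to double-stranded universal all-10-mer Agilent arrays, were detected with fluorescent anti-GST. Scans were normalised with masliner. A modified Wilcoxon-Mann-Whitney statistic, the E-score, was assigned to each ungapped eight-base word pooled with its reverse complement by the Universal PBM Analysis Suite.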
row,Sequence,PBM E-score
1,GACCCTAC,-0.177
2,AGGGCCTC,-0.242
3,CGCGGTAA,0.2
4,AAGGCTGT,-0.208
5,CCCTTCAC,-0.172
6,GGTTCGTA,0.0714
7,CTGCCGTA,-0.155
8,GCACCATA,-0.00684
9,CTTTTGTC,0.0635
10,TATCACAA,0.135
11,TCTTTACA,0.0741
12,CGCTCCAC,-0.092
13,CATTTTAG,0.15
14,ACAGCCTC,-0.103
15,TAGAGCAA,-0.126
16,ATTCGAAG,0.106
17,AGCTAAAA,-0.0268
18,ATGGCATG,0.0153
19,CTATCGAC,-0.165
20,AGGGCTCA,-0.206
21,ACAGTACT,0.0731
22,CTCCCGTC,0.163
23,AATCGGGA,0.0186
24,GCTCGGCC,-0.115
25,GCAAAGCA,-0.0559

row,Sequence,PBM E-score
1,AGTCAACT,-0.189
2,CTAGTGCA,0.128
3,CTGTACGC,-0.0413
4,GCCGAAAA,0.217
5,CCAAGCTC,-0.0587
6,CACAATAA,0.137
7,CAGTATTC,0.131
8,GCCAAACA,-0.0345
9,TGTGCCAA,0.175
10,GCCGCACC,-0.0235
11,CCTGACAG,0.0367
12,ACAAATTC,0.152
13,CAATCGGC,0.0586
14,ATGGAGGC,-0.197
15,CATACAGA,0.206
16,ATGCCTGC,-0.073
17,CTACGTAA,0.108
18,AAGTTCGA,0.194
19,AGCGACAA,-0.177
20,AAGGTTTG,-0.00394
21,CTTCTGCC,-0.138
22,GTTTGGCA,0.0649
23,AAGCTTGT,0.102
24,GCCGTCAA,-0.0115
25,CGAGCTTA,0.214

row,Sequence,PBM E-score
1,CCTGATCC,-0.1
2,AAATACCC,0.136
3,TATGGCAA,0.0518
4,CCTATCTC,-0.157
5,CTGGAGCA,-0.0242
6,GACGGCTC,-0.191
7,CCAGTTAG,-0.0417
8,CTGCCCAG,-0.179
9,CTGCTTAA,0.0117
10,GGCTAGAC,-0.118
11,CGGCAACG,0.0924
12,CAGCTAAG,0.0783
13,CTGAAGTA,0.0255
14,ACAACGTG,-0.0612
15,ATGGTTAG,0.136
16,CTCCACAC,-0.122
17,GCAAATCC,0.132
18,AGCATCCA,-0.168
19,CGGTAATC,-0.105
20,CTATCCTA,-0.0982
21,GCCGCCAC,-0.217
22,CTGCAAAG,0.0553
23,GGGGAGCA,-0.403
24,AACCGGAG,-0.00163
25,GCCTGTTA,-0.167

row,Sequence,PBM E-score
1,AGATGAAG,-0.278
2,GGCAACCA,0.123
3,AGGGGCTG,0.163
4,ATTTCTTC,0.23
5,ACTCATGG,-0.0232
6,CCGTAGCC,-0.233
7,ACTTACTG,-0.0123
8,CTCGAACA,0.0819
9,CAATTGAC,0.137
10,AGTTCTAC,-0.0875
11,ACCGACCG,-0.066
12,CCATTGCA,-0.0333
13,ATTTGGCA,0.109
14,GAGACTCA,0.114
15,CCACCGCC,-0.121
16,GGATACCA,0.0336
17,GATACCGA,-0.114
18,GAGAGTAC,-0.103
19,AAAGCCTC,-0.186
20,AGGGAGTC,-0.133
21,AAGGTCGT,0.0718
22,TATGCCAA,-0.0304
23,CCGGTGAA,0.00995
24,CGGAGCTA,-0.00607
25,AGGTGGCA,-0.159

# Quoted at random: 4 records from the list
row,Sequence,PBM E-score
2,GGCAACCA,0.123
1,AGATGAAG,-0.278
4,ATTTCTTC,0.23
13,ATTTGGCA,0.109

# At a glance, some entries already given:
row,Sequence,PBM E-score
17,AGCTAAAA,-0.0268
18,ATGGCATG,0.0153

# Next entries follow:

row,Sequence,PBM E-score
1,AGTGGAGC,-0.12
2,ATAAATCA,0.194
3,GCATTAGA,0.11
4,CCCTGCAC,-0.0891
5,GCGCCGAC,-0.137
6,CTACGGAA,0.0189
7,AACTTGAC,0.0523
8,AGGTGCTC,-0.323
9,CCACTTAA,0.00388
10,ACAGTTGC,0.0412
11,ATTTACCA,0.182
12,CCGCTTCC,-0.0312
13,AGCCCCAC,-0.15
14,AAACTCGC,-0.0694
15,AAGAGATC,-0.062
16,CATCTACG,0.0801
17,GCAGAGGA,0.0638
18,GGGCTGGA,-0.0401
19,CGTTCAAG,0.0453
20,ACAGTGGC,0.0426
21,CAGTAACG,0.0171
22,TACCTCGA,0.015
23,TCCCATAA,-0.089
24,AACACAGT,0.0635
25,CCGTGACG,0.0325

row,Sequence,PBM E-score
1,AATTGGCG,0.0732
2,AGGGGAAA,-0.149
3,AACTGCGC,-0.0153
4,AAGATTGT,0.0724
5,ATTACTCC,0.0689
6,GTAGCCAC,-0.0635
7,GATGATGA,-0.0136
8,AAGATTTG,0.0678
9,CAACGTCC,-0.178
10,CTATTTGC,-0.0458
11,GAGTAGGA,-0.0293
12,AAGATATC,0.172
13,CAACTAGA,-0.183
14,GCGGCTTA,0.227
15,GTCAAATA,0.111
16,CTTATATA,0.331
17,AAATTACA,0.191
18,CGCACTTC,-0.184
19,CCTCGTTA,-0.104
20,ACTATGCG,-0.127
21,CACGGCTC,-0.0342
22,GCGTACAA,0.0865
23,ACTCAGCG,0.148
24,GGGCAAGA,0.0533
25,CTCGCATC,-0.0326

row,Sequence,PBM E-score
1,AGCATGAA,0.0622
2,AATGGTCT,-0.0157
3,ATGACCTC,-0.125
4,GATTAGAA,0.0793
5,CCGTTTAC,0.146
6,CATGTACA,0.00541
7,CTTCAGAC,-0.00671
8,CTATGTTA,0.0633
9,AAGTGTGC,0.125
10,CACTACCA,0.029
11,GCTGTTAC,-0.0804
12,GTAGAGAC,-0.175
13,AACCAACT,0.0417
14,ATTTGGTC,0.139
15,ACATAACC,-0.0477
16,CCTTTTGA,-0.0567
17,CAGCGTGG,-0.154
18,ACGCATCC,-0.189
19,CTTTCAGC,-0.0777
20,GCCGAGAA,-0.0344
21,AGTTTCTA,-0.148
22,CTCCAAAA,-0.0998
